Some entries share one result that the patent states for a list of compounds.
These compounds were tested on Plasmodium falciparum parasite (assay: whole cell activity against the Plasmodium falciparum parasite). Details: comparison with prior art comparators.
Type: cell-based
Description: Equation 7 describes the apparent KI for competitive compounds and was substituted into equations 5 and 6 to generate the relevant binding constants from the fitting routine. In addition, the initial and final velocities were fit to equation 3 to further define the binding mechanism and potency. A complete discussion of this kinetic treatment has been fully described (Morrison et al., Adv. Enzymol. Relat. Areas Mol. Biol., 1988, 61, 201). 2) Determination of Whole Cell Activity Against the Plasmodium falciparum Parasite Compounds can be evaluated for whole cell activity against the Plasmodium falciparum parasite according to the procedure described in Sijwali S, and Rosenthal P. J., (2004) Proceedings of the National Academy of Sciences of the United States of America (PNAS) 101(13), 4384-4389 (see in particular “Measurement of Parasite Growth rates and Inhibitor Sensitivity” on page 4385); IC50 values can be calculated as described in Singh A. and Rosenthal P. J., (2001) Antimicrobial Agents and Chemotherapy 45(3), 949-951 (see in particular page 950, first column); synchronised parasites can be prepared as described in Divo A. A. et al., (1985) Protozool. 32, 59-64.

Structure (SMILES) | activity in the whole cell assay, as compared with comparative Examples 24 and 25
CN(C)CCCn1cnc2c(N(NC(=O)OC(C)(C)C)C3CCCC3)nc(C#N)nc21.O=C(O)C(F)(F)F [Example 15, 1,1-dimethylethyl 2-{2-cyano-9-[3-(dimethylamino)propyl]-9H-purin-6-yl}-2-cyclopentylhydrazinecarboxylate trifluoroacetate] | improved activity
CN1CCC(CN2CCN(Cc3ccc(C(=O)NN(c4nc(C#N)nc5c4ncn5C)C4CCCCC4)cc3)CC2)CC1.O=C(O)C(F)(F)F [Example 9, N′-(2-cyano-9-methyl-9H-purin-6-yl)-N′-cyclohexyl-4-({4-[(1-methyl-4-piperidinyl)methyl]-1-piperazinyl}methyl)-benzohydrazide trifluoroacetate] | improved activity
CN1CCN(Cc2ccc(C(=O)NN(c3nc(C#N)nc4c3ncn4C(=O)N3CCN(C)CC3)C3CCCCC3)cc2)CC1.O=C(O)C(F)(F)F [Example 38, N′-{2-cyano-9-[(4-methyl-1-piperazinyl)carbonyl]-9H-purin-6-yl}-N′-cyclohexyl-4-[(4-methyl-1-piperazinyl)methyl]benzohydrazide trifluoroacetate] | improved activity
CN(C)CCn1cnc2c(N(CC3CCCC3)NC(=O)OC(C)(C)C)nc(C#N)nc21.O=C(O)C(F)(F)F [Example 13, 1,1-dimethylethyl 2-{2-cyano-9-[2-(dimethylamino)ethyl]-9H-purin-6-yl}-2-(cyclopentylmethyl)hydrazinecarboxylate trifluoroacetate] | improved activity
CN(C)CCn1cnc2c(N(NC(=O)c3ccc(CN4CCN(C)CC4)cc3)C3CCCC3)nc(C#N)nc21.O=C(O)C(F)(F)F [Example 40, N′-{2-cyano-9-[2-(dimethylamino)ethyl]-9H-purin-6-yl}-N′-cyclopentyl-4-[(4-methyl-1-piperazinyl)methyl]benzohydrazide trifluoroacetate] | improved activity
CN1CCN(c2cccc(C(=O)NN(c3nc(C#N)nc4c3ncn4C)C3CCCCC3)c2)CC1.O=C(O)C(F)(F)F [Example 36, N′-(2-cyano-9-methyl-9H-purin-6-yl)-N′-cyclohexyl-3-(4-methyl-1-piperazinyl)benzohydrazide trifluoroacetate] | improved activity
CN1CCN(Cc2ccc(C(=O)NN(c3nc(C#N)nc4[nH]cnc34)C3CCCCC3)cc2)CC1.O=C(O)C(F)(F)F [Example 30, N′-(2-cyano-1H-purin-6-yl)-N′-cyclohexyl-4-[(4-methyl-1-piperazinyl)methyl]benzohydrazide trifluoroacetate] | improved activity
CN(C)CCn1cnc2c(N(NC(=O)OC(C)(C)C)C3CCCC3)nc(C#N)nc21.O=C(O)C(F)(F)F [Example 39, 1,1-dimethylethyl 2-{2-cyano-9-[2-(dimethylamino)ethyl]-9H-purin-6-yl}-2-cyclopentylhydrazinecarboxylate trifluoroacetate] | improved activity
CN1CCN(C(=O)C2CCN(Cc3ccc(C(=O)NN(c4nc(C#N)nc5c4ncn5C)C4CCCCC4)cc3)CC2)CC1.O=C(O)C(F)(F)F [Example 10, N′-(2-cyano-9-methyl-9H-purin-6-yl)-N′-cyclohexyl-4-({4-[(4-methyl-1-piperazinyl)carbonyl]-1-piperidinyl}methyl)benzohydrazide trifluoroacetate] | improved activity
CN(CCn1cnc2c(N(NC(=O)OC(C)(C)C)C3CCCC3)nc(C#N)nc21)C(C)(C)C.O=C(O)C(F)(F)F [Example 43, 1,1-dimethylethyl 2-(2-cyano-9-{2-[(1,1-dimethylethyl)(methyl)amino]ethyl}-9H-purin-6-yl)-2-cyclopentylhydrazinecarboxylate trifluoroacetate] | improved activity
CN1CCC(CN2CCN(Cc3ccc(C(=O)NN(CC4CCCC4)c4nc(C#N)nc5c4ncn5C)cc3)CC2)CC1.O=C(O)C(F)(F)F [Example 2, N′-(2-cyano-9-methyl-9H-purin-6-yl)-N′-(cyclopentylmethyl)-4-({4-[(1-methyl-4-piperidinyl)methyl]-1-piperazinyl}methyl)benzohydrazide trifluoroacetate] | improved activity
CN(C)CCCn1cnc2c(N(NC(=O)c3ccc(CN4CCN(C)CC4)cc3)C3CCCC3)nc(C#N)nc21.O=C(O)C(F)(F)F [Example 17, N′-{2-cyano-9-[3-(dimethylamino)propyl]-9H-purin-6-yl}-N′-cyclo pentyl-4-[(4-methyl-1-piperazinyl)methyl]benzohydrazide trifluoroacetate] | improved activity
CN1CCC(N2CCN(Cc3ccc(C(=O)NN(CC4CCCC4)c4nc(C#N)nc5c4ncn5C)cc3)CC2)CC1.O=C(O)C(F)(F)F [Example 18] | improved activity
CN1CCN(C2CCN(Cc3ccc(C(=O)NN(c4nc(C#N)nc5c4ncn5C)C4CCCC4)cc3)CC2)CC1.O=C(O)C(F)(F)F [Example 4] | improved activity
Cn1cnc2c(N(NC(=O)c3ccc(CN4CC(N5CCCC5)C4)cc3)C3CCCCC3)nc(C#N)nc21.O=C(O)C(F)(F)F [Example 11] | improved activity
CC(C)(C)OC(=O)NN(CC1CCCC1)c1nc(C#N)nc2c1ncn2CCN1C(=O)c2ccccc2C1=O [Example 21, 1,1-dimethylethyl-2-{2-cyano-9-[2-(1,3-dioxo-1,3-dihydro-2H-isoindol-2-yl)ethyl]-9H-purin-6-yl}-2-(cyclopentylmethyl)hydrazinecarboxylate] | improved activity
CN1CCN(Cc2ccc(C(=O)NN(CC3CCCC3)c3nc(C#N)nc4c3ncn4C)cc2)CC1.O=C(O)C(F)(F)F [Example 23, N′-(2-cyano-9-methyl-9H-purin-6-yl)-N′-(cyclopentylmethyl)-4-[(4-methyl-1-piperazinyl)methyl]benzohydrazide trifluoroacetate] | improved activity
CN1CCN(Cc2ccc(-c3cccc(C(=O)NN(c4nc(C#N)nc5c4ncn5C)C4CCCC4)n3)cc2)CC1.O=C(O)C(F)(F)F [Example 28, N′-(2-cyano-9-methyl-9H-purin-6-yl)-N′-cyclopentyl-6-{4-[(4-methyl-1-piperazinyl)methyl]phenyl}-2-pyridinecarbohydrazide trifluoroacetate] | improved activity
CN1CCN(Cc2cccc(C(=O)NN(c3nc(C#N)nc4c3ncn4C)C3CCCC3)n2)CC1.O=C(O)C(F)(F)F [Example 26, N′-(2-cyano-9-methyl-9H-purin-6-yl)-N′-cyclopentyl-6-[(4-methyl-1-piperazinyl)methyl]-2-pyridinecarbohydrazide trifluoroacetate] | improved activity
CN1CCN(C2CCN(Cc3ccc(C(=O)NN(CC4CCCC4)c4nc(C#N)nc5c4ncn5C)cc3)CC2)CC1.O=C(O)C(F)(F)F [Example 1] | improved activity
